Assay results from article PMC11239938, “Inhibition of DUSP18 impairs cholesterol biosynthesis and promotes anti-tumor immunity in colorectal cancer” (Nature Communications, 2024).
These are yes or no findings as the source states them, for the method shown. Binding seen in cells or lysates may run through a third protein. Some entries that bind do so weakly or less than the wild type. Blank lines part the entries; values can stand above or below the binder they belong to.

Sequences of proteins named here, by UniProt entry; tags and fusion partners are left off. A change or cut given only in a name is not applied to a line headed by its entry.
UniProt P22415: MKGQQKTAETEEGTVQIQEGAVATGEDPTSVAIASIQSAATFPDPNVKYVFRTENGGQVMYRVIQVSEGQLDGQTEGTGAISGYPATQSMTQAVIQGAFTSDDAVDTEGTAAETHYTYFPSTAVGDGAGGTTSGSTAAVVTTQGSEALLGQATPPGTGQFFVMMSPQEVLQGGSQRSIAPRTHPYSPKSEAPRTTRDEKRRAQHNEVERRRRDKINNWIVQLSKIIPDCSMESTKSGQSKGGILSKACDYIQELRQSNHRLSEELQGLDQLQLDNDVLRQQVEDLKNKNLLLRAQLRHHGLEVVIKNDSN

How the values were obtained:
[1] = target: USF1 T100A mutant (UniProt P22415); assay: co-IP; USF1 wild type or T100A with USF2 or Cha (Supplementary Fig. 5j, k); set-up not given, method taken from the only binding method of the methods section
[2] = target: USF1 bHLH-ZIP transcription factor, exogenous, wild type (UniProt P22415); assay: as above
[3] = target: USF1 bHLH-ZIP transcription factor, endogenous (UniProt P22415); assay: co-IP; endogenous proteins; cells lysed in RIPA buffer, lysate with antibody and beads overnight at 4 °C, immunoblot
[4] = target: USF1 bHLH-ZIP transcription factor, exogenous, wild type (UniProt P22415); assay: co-IP; exogenous (tagged, overexpressed) proteins; cells lysed in RIPA buffer, lysate with antibody and beads overnight at 4 °C, immunoblot

binding [1]: binds
binding [2]: binds
B1: transcriptional repressor Cha (protein, UniProt Q9UL49 1-500)
chain: MSGPGPREPPPEAGAAGGEAAVEGAGGGDAALGEPGLSFTTTDLSLVEMTEVEYTQLQHILCSHMEAAADGELETRLNSALLAAAGPGAGAGGFAAGGQGGAAPVYPVLCPSALAADAPCLGHIDFQELRMMLLSEAGAAEKTSGGGDGARARADGAAKEGAGAAAAAAGPDGAPEARAKPAVRVRLEDRFNSIPAEPPPAPRGPEPPEPGGALNNLVTLIRHPSELMNVPLQQQNKCTALVKNKTAATTTALQFTYPLFTTNACSTSGNSNLSQTQSSSNSCSVLEAAKHQDIGLPRAFSFCYQQEIESTKQTLGSRNKVLPEQVWIKVGEAALCKQALKRNRSRMRQLDTNVERRALGEIQNVGEGATATQGAWQSSESSQANLGEQAQSGPQGGRSQRRERHNRMERDRRRRIRICCDELNLLVPFCNAETDKATTLQWTTAFLKYIQERHGDSLKKEFESVFCGKTGRRLKLTRPDSLVTCPAQGSLQSSPSMEIK

binding [3]: binds
B2: dual specificity phosphatase 18 (DUSP18), endogenous (enzyme, UniProt Q8NEJ0 1-188)
chain: MTAPSCAFPVQFRQPSVSGLSQITKSLYISNGVAANNKLMLSSNQITMVINVSVEVVNTLYEDIQYMQVPVADSPNSRLCDFFDPIADHIHSVEMKQGRTLLHCAAGVSRSAALCLAYLMKYHAMSLLDAHTWTKSCRPIIRPNSGFWEQLIHYEFQLFGKNTVHMVSSPVGMIPDIYEKEVRLMIPL

binding [4]: binds
B3: dual specificity phosphatase 18 (DUSP18), exogenous (enzyme, UniProt Q8NEJ0 1-188)
chain: B2 chain
